This is an account of results in PubChem BioAssay AID2685 (National Center for Advancing Translational Sciences (NCATS), 2010).

This is one part of the list. Further columns of the screen follow, without active or inactive calls. Compounds called inactive in the main read-out are mostly missing here. Potencies come from curve fits of mixed quality, noted in brackets.

A short description of the test: qHTS Assay for Lipid Storage Modulators in Drosophila S3 Cells.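 On cell number change: cells counted by Cell Tracker Red CMTPX staining in the red channel.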 Conditions: BODIPY lipid droplet fluorescence, 18-24 h; for cell number change: measured here: cell count max response, cells fed with added oleic acid. The procedure, abridged: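 Drosophila S3 cells got compounds at several concentrations plus oleic acid (400 uM solution). Laser-scanning cytometry with 488 nm excitation read lipid droplets at 500-530 nm and cells at 575-640 nm. Percent activity was relative to 20 uM Triacsin C.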

Setting [1] is: measured here: cell number channel AC50, cells fed with added oleic acid.
The mark [2] stands for this setting: measured here: lipid fluorescence (Fed channel) AC50, cells fed with added oleic acid.

With `Cc1ccc(C2NC(=S)NC3=C2C(=O)CCC3)cc1` (stereo not given), the cell number change was 33%. Further, the AC50 under setting [1] is 29.1 µM [rising, single point]. For the same compound, the AC50 under setting [2] was 29.1 µM [rising, single point].
`COc1ccc(S(=O)(=O)Nc2ccc3c(c2)OCCO3)cc1OC`: the cell number change is -2.76%. Besides, under setting [2], the AC50 was 0.103 µM [rising, full curve, poor fit].
Consider `CCc1noc(C)c1C(=O)Nc1nc(-c2ccc(OC)cc2OC)cs1`, for which the AC50 is 1.16 µM [rising, partial curve] under setting [1] and 2.06 µM [rising, partial curve] under setting [2].
`C[C@H]1[C@H](C)CC[C@]2(C)CC[C@]3(C)C(=CC(=O)C4[C@@]5(C)CC[C@H](O)C(C)(C)C5CC[C@]43C)[C@H]12` (stereo not given in full): the cell number change was determined as 14.3%. Besides, under setting [1], the AC50 was 2.06 µM [rising, partial curve, poor fit]. The AC50 under setting [2] was 0.259 µM [rising, full curve, poor fit].
In the case of `O=S1(=O)CCOC[C@H](c2ccccc2)N1Cc1cccc(Cl)c1`, the cell number change worked out at 14.4%.
For `COc1ccc(NC(=O)c2cccc(S(=O)(=O)N3CCCCCC3)c2)cc1`, the cell number change was 27.8%. Further, under setting [2], the AC50 was 1.84 µM [falling, full curve].
For the compound `CCCCc1nc2cc(C(=O)NC3CCOC(C)(C)C3)ccc2o1` (stereo not given), the cell number change was -2.27%. The AC50 under setting [2] is 29.1 µM [rising, single point].
Take `O=C(COc1ccc(Cl)cc1Cl)NCc1ccncc1`: the cell number change is -29%. The half-maximal activity concentration (AC50) under setting [2] was 9.2 µM [rising, partial curve, poor fit].
As for `O=C(c1ccc(NC(=O)C2(c3ccccc3)CCOCC2)cc1)N1CCOCC1`, the half-maximal activity concentration (AC50) under setting [2] was 1.84 µM [falling, partial curve].
As to `COc1ccccc1N1CCN(C2CCCC(C)C2)CC1` (stereo not given), the cell number change is -37.6%. For the same compound, the AC50 under setting [1] is 6.51 µM [falling, full curve, poor fit].
Consider `C/C(=N\Nc1nnc2c3ccccc3n(C)c2n1)c1ccc(C)o1`, for which the cell number change was determined as 30.5%. The AC50 under setting [1] is 1.64 µM [rising, full curve]. For the same compound, the AC50 under setting [2] is 29.1 µM [rising, single point].
For the compound `O=C(c1ccccc1)c1cnc(-c2ccc(Cl)cc2)s1`, the cell number change was 1.44%. Also, under setting [2], the AC50 was 29.1 µM [rising, single point].
Turning to `CCn1c(=O)cc(OCC(=O)NCCC(C)C)c2ccccc21`, the cell number change turned out to be 0.368%. Further, the AC50 under setting [2] was 16.4 µM [rising, single point].
For `CCCCN(CCCC)S(=O)(=O)c1ccc(NC(=O)c2cccs2)cc1`, the cell number change turned out to be 47.1%. For the same compound, the AC50 under setting [1] was 29.1 µM [rising, single point]. Under setting [2], the AC50 was 0.58 µM [rising, single point].
As for `COc1ccc(Br)cc1CNC(=O)C1CCN(S(=O)(=O)N2CCCC2)CC1`, the cell number change is -22.4%. Further, the AC50 under setting [2] is 32.6 µM [falling, single point].
In the case of `Cc1cc2oc(=O)cc(CN(C)Cc3ccccc3F)c2cc1Cl`, the cell number change was determined as 31%. Besides, the AC50 under setting [1] was 32.6 µM [rising, single point].
As for `CCC(=O)Oc1oc(-c2ccccc2)nc1C=Nc1ccccc1OC`, the cell number change was -67.1%. Also, the AC50 under setting [2] was 0.0058 µM [falling, full curve, poor fit].
On to `CCOc1ccc(Cl)cc1S(=O)(=O)N1CCC(C(=O)NCc2cccnc2)CC1`, for which the cell number change came to 19.3%. In addition, the AC50 under setting [1] was 0.58 µM [rising, full curve, poor fit].
For `COc1ccc(C)cc1NC(=O)CC(NC(C)=O)c1ccccc1` (stereo not given), the cell number change was -18%. Besides, the AC50 under setting [2] is 0.146 µM [falling, partial curve].
Turning to `CN(C(=O)c1ccc([N+](=O)[O-])cc1)c1ccccc1C(=O)NCc1ccccc1`, the cell number change is -7.18%. Besides, the AC50 under setting [2] is 16.4 µM [rising, single point].
`CC1CCc2sc3ncnc(N4CCN(C)CC4)c3c2C1` (stereo not given): the cell number change was -22.3%. Also, the AC50 under setting [2] is 0.82 µM [rising, single point].
Turning to `Cc1cc(C)n(-c2nnc(C)n2/N=C/c2ccccc2O)n1`, the AC50 under setting [2] was 20.6 µM [falling, partial curve].
On to `COc1ccc(NC(=O)COc2ccccc2)cc1Cl`, for which the cell number change was 6.45%. For the same compound, the AC50 under setting [1] is 0.0651 µM [rising, full curve, poor fit].
On to `CC(=O)Nc1ccc(C(=O)CSc2nnnn2C(C)C)cc1`, for which the cell number change was -6.87%.
Consider `Cc1ccc(N(CC(=O)NCC2CCCO2)S(C)(=O)=O)cc1Cl` (stereo not given), for which the cell number change stood at 13.7%. Moreover, under setting [2], the AC50 was 29.1 µM [falling, single point].
As to `COc1ccc(CN2CCNC(=O)C2CC(=O)N(C)Cc2nccs2)cc1OC` (stereo not given), the cell number change was found to be 41%. Moreover, the AC50 under setting [2] is 7.08 µM [rising, full curve, poor fit].
As to `CC1(C)Cc2ccccc2-c2nnc(SCC(=O)Nc3ccc4c(c3)OCO4)n21`, the cell number change is -199%. Moreover, under setting [1], the AC50 was 4.61 µM [falling, full curve]. In addition, under setting [2], the AC50 was 0.411 µM [falling, partial curve, poor fit].
For `O=C(Nc1ccncc1)c1ccc(Cl)c(S(=O)(=O)N2CCCC2)c1`, the cell number change worked out at 143%. Moreover, under setting [1], the AC50 is 18.4 µM [rising, partial curve].
Consider `O=C(N[C@@H](Cc1ccccc1)C(=O)NC1CC1)c1ccc(Cl)cc1`, for which the cell number change is 28.2%. Besides, the AC50 under setting [2] is 6.51 µM [falling, partial curve, poor fit].
Take `O=C(N/N=C/c1ccccc1F)c1cc2c(ccc3ccccc32)o1`: the cell number change was -3.68%. The AC50 under setting [2] was 0.82 µM [rising, full curve].
Regarding `CC(=O)Nc1ccc(S(=O)(=O)NCC(=O)OCC(=O)N2CCCCCC2)cc1`, the cell number change was 0.376%. In addition, under setting [2], the AC50 was 1.46 µM [rising, partial curve].
Turning to `NC(=O)NC(=O)COC(=O)c1ccccc1Oc1ccccc1`, the cell number change was -0.408%.
In the case of `COc1cccc(/C=C2\SC(=S)N(CC(=O)N(C)C3CCS(=O)(=O)C3)C2=O)c1` (stereo not given), the cell number change was 0.382%. The AC50 under setting [2] is 29.1 µM [falling, single point].
As to `COc1ccc([C@H]2CC(=O)C=C(c3cccc(Br)c3)C2)cc1`, the cell number change amounted to 5.37%. Also, the AC50 under setting [2] is 0.731 µM [falling, single point].
For the compound `CCOc1cc(C2C(C(=O)O)c3cc(OCC)c(OCC)cc3C(=O)N2C)ccc1O` (stereo not given), the cell number change is -146%. Also, the AC50 under setting [1] is 29.1 µM [falling, single point]. For the same compound, the AC50 under setting [2] is 29.1 µM [falling, single point].
Turning to `CCc1nc(N2CCN(CC(=O)NCC3CCCO3)CC2)c(C#N)c2c1COC(C)(C)C2` (stereo not given), the AC50 by setting is: under setting [1], 0.103 µM [rising, full curve]; under setting [2], 29.1 µM [rising, single point].
With `NC(=O)COC(=O)c1cccnc1Nc1ccccc1F`, the cell number change turned out to be 18.9%.
Regarding `Cc1c(C(=O)Nc2c3c(nn2C(C)(C)C)CS(=O)(=O)C3)cccc1[N+](=O)[O-]`, the cell number change is -33.6%. Besides, the AC50 under setting [1] was 8.2 µM [falling, partial curve, poor fit].
As to `CCOc1cc(CO)cc(Br)c1OCC(=O)Nc1ccccc1C`, the cell number change came to 12.3%.
For `COC(=O)c1cc(NS(=O)(=O)c2ccc(OC)c(OC)c2)ccc1Cl`, the cell number change was -22.4%.
Take `Cc1nn(Cc2cccc(C(=O)N3N=C(C(F)F)CC3(O)C(F)F)c2)c(C)c1[N+](=O)[O-]` (stereo not given): the concentration at half-maximal activity (AC50) was 2.06 µM [rising, partial curve] under setting [1] and 6.51 µM [rising, full curve, poor fit] under setting [2].
As for `COc1ncccc1C(=O)N1CCCC(N2CCN(c3cccc(Cl)c3)CC2)C1` (stereo not given), the cell number change is 18.5%. Under setting [2], the AC50 is 0.651 µM [rising, full curve].
As to `O=C(CN1CCN(S(=O)(=O)c2ccc(Cl)cc2)CC1)Nc1ccc2c(c1)OCCO2`, the cell number change worked out at 11.5%.
On to `Cc1ccc(C2CC(C(F)(F)F)n3ncc(C(N)=O)c3N2)cc1` (stereo not given), for which the cell number change was -16.8%. For the same compound, the half-maximal activity concentration (AC50) under setting [2] is 16.4 µM [rising, partial curve].
As to `CCn1c2ccccc2c2cc(NC(=O)COC(=O)c3cc(S(=O)(=O)N4CCCCC4)ccc3Cl)ccc21`, the cell number change was 4.47%.
Regarding `CNc1nc(SCc2ccc(C)cc2)nc2c1CCCC2`, the cell number change is -35.1%. The AC50 under setting [1] is 8.2 µM [falling, partial curve, poor fit].
In the case of `Cn1c(=O)c2c(ncn2CC(=O)OCC(=O)Nc2ccc(F)cc2F)n(C)c1=O`, the cell number change is -10%. The AC50 under setting [2] was 2.31 µM [rising, single point].
Regarding `CCCCCCCN=CC1=C(O)CC(c2ccccc2)CC1=O` (stereo not given), the cell number change came to 2.59%. For the same compound, the AC50 under setting [2] was 14.6 µM [rising, single point].
In the case of `Cc1ccc(CNC(=O)c2ccc(N3CCC4(CC3)CC(c3cccc(Br)c3)=NO4)c(N)c2)cc1`, the cell number change is -4.55%. Besides, the AC50 under setting [2] was 0.146 µM [falling, partial curve].
Take `O=C(Nc1cccc(-c2cnc3ccccc3n2)c1)c1cccc(NC(=O)c2ccco2)c1`: the cell number change was -152%. The AC50 under setting [1] was 25.9 µM [falling, single point].
For `CC1(C)CCC(=O)N2CC[C@H]3C[C@H](OC(=O)Nc4ccccc4)C[C@@H]1[C@H]32`, the cell number change was found to be 1.94%. For the same compound, under setting [2], the AC50 is 0.731 µM [rising, full curve].
Take `CCCSc1nc2c(c(=O)[nH]c(=O)n2C)n1CCc1ccccc1`: the cell number change is -23.6%. The AC50 under setting [2] was 0.651 µM [falling, full curve, poor fit].
As for `Cc1nc2ccccc2nc1OCC(=O)NCC(F)(F)F`, the cell number change is -6.12%. The AC50 under setting [2] was 13 µM [falling, partial curve, poor fit].
With `O=C(NCCc1c[nH]c2ccccc12)c1cc2sccc2n1Cc1ccccc1`, the cell number change was -65.9%. Moreover, the AC50 under setting [1] is 10.3 µM [falling, partial curve]. Under setting [2], the AC50 was 5.8 µM [falling, partial curve].
For `CCCN(CCC)C(=O)CC(c1ccccc1)c1ccc(C)cc1O` (stereo not given), the cell number change is -13.1%.
On to `CCC(C)[C@H](NC(=O)[C@H](Cc1ccccc1)n1c(=O)[nH]c2ccccc2c1=O)C(=O)NCC1CCC(C(=O)O)CC1` (stereo not given in full), for which the cell number change came to 12%. Besides, the AC50 under setting [2] was 3.66 µM [falling, single point].
`COCc1[nH][nH]c(=O)c1C=Nc1ccc(Oc2ccccc2)cc1`: the cell number change came to 89%.
With `COc1ccc(CCN2C(=O)CC(Sc3ncccc3C(=O)O)C2=O)cc1OC` (stereo not given), the cell number change was -29.5%. Moreover, the AC50 under setting [1] is 0.651 µM [falling, full curve, poor fit]. Under setting [2], the AC50 is 25.9 µM [falling, single point].
Take `Cc1c(C(=O)c2ccc(Cl)c([N+](=O)[O-])c2)c2ccccn2c1CCC#N`: the cell number change is 32.3%. For the same compound, the AC50 under setting [1] is 6.51 µM [falling, single point]. Besides, the AC50 under setting [2] was 25.9 µM [falling, single point].
